Publication PMC4599271
These are yes or no findings as the source states them, for the method shown. Binding seen in cells or lysates may run through a third protein. Some results given as binding are weak or reduced against the parent protein; the word gives no strength.

Sequences of proteins named here, by UniProt entry; tags and fusion partners are left off.
UniProt Q02248: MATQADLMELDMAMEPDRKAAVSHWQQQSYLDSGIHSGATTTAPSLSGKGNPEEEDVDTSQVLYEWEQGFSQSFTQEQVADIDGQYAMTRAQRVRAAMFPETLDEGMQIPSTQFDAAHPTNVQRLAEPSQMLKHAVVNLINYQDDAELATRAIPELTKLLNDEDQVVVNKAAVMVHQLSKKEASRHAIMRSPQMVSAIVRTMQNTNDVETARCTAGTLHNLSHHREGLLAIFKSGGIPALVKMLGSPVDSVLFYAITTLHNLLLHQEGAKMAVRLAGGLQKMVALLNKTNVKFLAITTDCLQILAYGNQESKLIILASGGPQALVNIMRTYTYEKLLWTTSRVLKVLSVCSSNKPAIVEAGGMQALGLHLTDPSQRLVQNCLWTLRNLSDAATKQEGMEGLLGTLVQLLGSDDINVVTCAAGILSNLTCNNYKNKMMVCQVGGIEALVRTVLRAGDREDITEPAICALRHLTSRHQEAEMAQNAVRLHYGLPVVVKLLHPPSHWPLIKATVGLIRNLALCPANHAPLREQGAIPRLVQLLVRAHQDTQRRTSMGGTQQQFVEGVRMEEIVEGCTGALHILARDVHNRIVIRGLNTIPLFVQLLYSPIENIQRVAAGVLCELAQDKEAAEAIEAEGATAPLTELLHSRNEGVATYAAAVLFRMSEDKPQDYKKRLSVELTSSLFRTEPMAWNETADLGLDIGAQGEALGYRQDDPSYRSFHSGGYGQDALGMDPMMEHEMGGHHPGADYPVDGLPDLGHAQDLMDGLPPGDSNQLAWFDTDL

Target: active β-catenin (mouse (endogenous in R7)) (UniProt Q02248)
Test: co-IP; immunoprecipitation studies in R7 cells; data not shown; the precipitating antibody and the treatment with 1,25D3 are not told

- binding: binds
B1: vitamin D receptor (protein, UniProt P48281 1-422)
chain: MEAMAASTSLPDPGDFDRNVPRICGVCGDRATGFHFNAMTCEGCKGFFRRSMKRKALFTCPFNGDCRITKDNRRHCQACRLKRCVDIGMMKEFILTDEEVQRKREMIMKRKEEEALKDSLRPKLSEEQQHIIAILLDAHHKTYDPTYADFRDFRPPIRADVSTGSYSPRPTLSFSGDSSSNSDLYTPSLDMMEPASFSTMDLNEEGSDDPSVTLDLSPLSMLPHLADLVSYSIQKVIGFAKMIPGFRDLTSDDQIVLLKSSAIEVIMLRSNQSFTLDDMSWDCGSQDYKYDITDVSRAGHTLELIEPLIKFQVGLKKLNLHEEEHVLLMAICIVSPDRPGVQDAKLVEAIQDRLSNTLQTYIRCRHPPPGSHQLYAKMIQKLADLRSLNEEHSKQYRSLSFQPENSMKLTPLVLEVFGNEIS
